Measured data: PubChem BioAssay AID1259283 (Sanger Institute, 2017)
In all, the deposit lists 794 reagents; this is an unselected part. Over the whole deposit, 14 (1.8%) are marked active. 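Calls reflect only viability loss without drug; drug synergy does not enter the call.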 Further read-outs or replicates are left out here. No sequences are given here. Not stated in the record: the amount of reagent, the time to read-out.

- Screen: 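Kinases needed for HT115 growth and partners for drug synergy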 (primary screen)
- Cell system: HT115 colorectal cancer cells
- Reagent: siRNA pool against human genes
- Conditions: anchor drug given one day after siRNA: BYL719 at 1 µM, cetuximab at 5 µg/ml, trametinib at 10 nM, or DMSO vehicle alone
- Read-out: 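Per-drug synergy scores plus replicate-mean viability relative to non-targeting pool #2 wells, also expressed as a robust z-score based on control wells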
- Direction: robust z-score, knock-down alone: higher = more viable cells after knock-down
- Active means: 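Essential gene: robust z-score less than -3 with no drug added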
- Meaning of the calls: active = essential (z below -3, no drug); inactive = no change without drug

SMC1A — robust z-score, knock-down alone = -1.4; Outcome = inactive
WHR1 — robust z-score, knock-down alone = 0.75; Outcome = inactive
ETNK1 — robust z-score, knock-down alone = 0.789; Outcome = inactive
PRPS1L1 — robust z-score, knock-down alone = -0.2; Outcome = inactive
PIK3R4 — robust z-score, knock-down alone = -1.04; Outcome = inactive
VRK1 — robust z-score, knock-down alone = -0.522; Outcome = inactive
MAP3K6 — robust z-score, knock-down alone = -0.635; Outcome = inactive
TBX3 — robust z-score, knock-down alone = 0.289; Outcome = inactive
DCLK1 — robust z-score, knock-down alone = 0.0721; Outcome = inactive
ULK4 — robust z-score, knock-down alone = -1.37; Outcome = inactive
BRAF — robust z-score, knock-down alone = -1.14; Outcome = inactive
ADCK2 — robust z-score, knock-down alone = -0.0892; Outcome = inactive
CHUK — robust z-score, knock-down alone = 0.44; Outcome = inactive
MAPK13 — robust z-score, knock-down alone = -0.908; Outcome = inactive
SNRK — robust z-score, knock-down alone = -2.56; Outcome = inactive
POMK — robust z-score, knock-down alone = 0.72; Outcome = inactive
DGKB — robust z-score, knock-down alone = 0.032; Outcome = inactive
DCK — robust z-score, knock-down alone = -1.01; Outcome = inactive

Next part; the last 2 above are carried over.
DGKB — robust z-score, knock-down alone = 0.032; Outcome = inactive
DCK — robust z-score, knock-down alone = -1.01; Outcome = inactive
CDK19 — robust z-score, knock-down alone = 0.789; Outcome = inactive
TSSK6 — robust z-score, knock-down alone = 0.789; Outcome = inactive
YES1 — robust z-score, knock-down alone = 0.0435; Outcome = inactive
PRKCD — robust z-score, knock-down alone = 0.0517; Outcome = inactive
PIK3R5 — robust z-score, knock-down alone = -1.19; Outcome = inactive
EEF2K — robust z-score, knock-down alone = -1.8; Outcome = inactive
PRKDC — robust z-score, knock-down alone = -0.0445; Outcome = inactive
SRC — robust z-score, knock-down alone = 0.549; Outcome = inactive
TPK1 — robust z-score, knock-down alone = -1.1; Outcome = inactive
STAG2 — robust z-score, knock-down alone = 0.0207; Outcome = inactive
